The text below walks through data of patent US20100035825A1.

Assay [1] deals with T1, procaspase 1 (endogenous, rat stellate cells) (rat) (UniProt P43527).
T1 sequence (looked up): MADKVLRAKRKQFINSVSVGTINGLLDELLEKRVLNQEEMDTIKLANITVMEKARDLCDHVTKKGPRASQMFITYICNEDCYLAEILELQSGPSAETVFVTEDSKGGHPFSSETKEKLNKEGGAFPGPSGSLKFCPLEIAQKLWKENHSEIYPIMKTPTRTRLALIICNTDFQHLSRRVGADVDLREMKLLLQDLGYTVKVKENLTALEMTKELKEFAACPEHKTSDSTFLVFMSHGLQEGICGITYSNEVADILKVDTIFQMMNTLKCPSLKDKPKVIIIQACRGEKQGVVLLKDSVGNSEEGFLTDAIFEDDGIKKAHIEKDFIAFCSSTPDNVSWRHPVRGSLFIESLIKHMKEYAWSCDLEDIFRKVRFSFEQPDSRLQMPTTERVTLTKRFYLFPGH
As to the kind of experiment: anti-HA co-immunoprecipitation and immunoblot, transfected rat stellate cells.

Assay [2] concerns the target T2, procaspase 8 (endogenous, rat stellate cells) (rat) (UniProt Q9JHX4).
T2 sequence (looked up): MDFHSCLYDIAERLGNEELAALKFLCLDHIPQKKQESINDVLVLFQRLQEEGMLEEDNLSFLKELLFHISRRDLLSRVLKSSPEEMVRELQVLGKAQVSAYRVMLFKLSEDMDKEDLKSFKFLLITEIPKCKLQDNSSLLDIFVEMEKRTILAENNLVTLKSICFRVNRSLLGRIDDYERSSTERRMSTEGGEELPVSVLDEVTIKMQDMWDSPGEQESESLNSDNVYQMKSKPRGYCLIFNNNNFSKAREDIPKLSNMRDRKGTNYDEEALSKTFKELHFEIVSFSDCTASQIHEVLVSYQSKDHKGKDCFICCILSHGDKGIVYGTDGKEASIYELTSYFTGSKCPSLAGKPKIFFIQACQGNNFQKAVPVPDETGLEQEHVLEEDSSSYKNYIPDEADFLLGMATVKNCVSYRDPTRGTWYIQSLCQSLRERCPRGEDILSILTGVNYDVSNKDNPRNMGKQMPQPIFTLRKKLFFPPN
Described as above.

No constants are given. Whether binding was seen depends on the method and setting. In cells and extracts the contact can be indirect. Some entries that bind do so weakly or less than the wild type. Sequences can lack the tags named with a protein.

B1: rC/EBPβ 92-142-HA with Asp^105 (protein, not shown: small tags and cut ends)
chain: FADDYGAKPSKKPDDYGYVSLGRAGAKAAPPACFPPPPPAALKAEPGFEPA
With B1, the binding result in assay [1] and in assay [2] was “binds” throughout.
